Binding data for one molecule are collected here from paper doi:10.1101/2020.09.30.320457.

This assay addresses HSV-1 procapsid scaffold (scaffold protein pUL26.5) (herpes simplex virus type 1 (HSV-1)). In words: cryo-EM structure.

Results are given in words; binding and its absence hold for the method and conditions named. A result given as binding can be weak or reduced; the word gives no strength.

B1: HSV-1 portal protein pUL6 (dodecameric portal ring) (protein, UniProt P10190 8-676)
chain: APTTRARGDTEALCSPEDGWVKVHPSPGTMLFREILHGQLGYTEGQGVYNVVRSSEATTRQLQAAIFHALLNATTYRDLEADWLGHVAARGLQPQRLVRRYRNAREADIAGVAERVFDTWRNTLRTTLLDFAHGLVACFAPGGPSGPSSFPKYIDWLTCLGLVPILRKRQEGGVTQGLRAFLKQHPLTRQLATVAEAAERAGPGFFELALAFDSTRVADYDRVYIYYNHRRGDWLVRDPISGQRGECLVLWPPLWTGDRLVFDSPVQRLFPEIVACHSLREHAHVCRLRNTASVKVLLGRKSDSERGVAGAARVVNKVLGEDDETKAGSAASRLVRLIINMKGMRHVGDINDTVRSYLDEAGGHLIDAPAVDGTLPGFGKGGNSRGSAGQDQGGRAPQLRQAFRTAVVNNINGVLEGYINNLFGTIERLRETNAGLATQLQERDRELRRATAGALERQQRAADLAAESVTGGCGSRPAGADLLRADYDIIDVSKSMDDDTYVANSFQHPYIPSYAQDLERLSRLWEHELVRCFKILCHRNNQGQETSISYSSGAIAAFVAPYFESVLRAPRVGAPITGSDVILGEEELWDAVFKKTRLQTYLTDIAALFVADVQHAALPPPPSPVGADFRPGASPRGRSRSRSPGRTARGAPDQGGGIGHRDGRRDGRR
As for B1, the binding entry is recorded as “binds”.
